Results from patent US20110236900, “NOVEL MUTS PROTEIN AND METHOD FOR DETERMING MUTATION USING THE SAME” (RIKEN, published 2011).
Construct, isoform or probe ends are uncertain for at least one entry. Protein sequences can lack the tags named with them.

Legend:
Aac MutS = system: T1, Aac MutS; assay: SPR; settings: purified recombinant protein, label: 5'-biotin on Del-strand, variant of C/G fully-matched duplex
T1 sequence: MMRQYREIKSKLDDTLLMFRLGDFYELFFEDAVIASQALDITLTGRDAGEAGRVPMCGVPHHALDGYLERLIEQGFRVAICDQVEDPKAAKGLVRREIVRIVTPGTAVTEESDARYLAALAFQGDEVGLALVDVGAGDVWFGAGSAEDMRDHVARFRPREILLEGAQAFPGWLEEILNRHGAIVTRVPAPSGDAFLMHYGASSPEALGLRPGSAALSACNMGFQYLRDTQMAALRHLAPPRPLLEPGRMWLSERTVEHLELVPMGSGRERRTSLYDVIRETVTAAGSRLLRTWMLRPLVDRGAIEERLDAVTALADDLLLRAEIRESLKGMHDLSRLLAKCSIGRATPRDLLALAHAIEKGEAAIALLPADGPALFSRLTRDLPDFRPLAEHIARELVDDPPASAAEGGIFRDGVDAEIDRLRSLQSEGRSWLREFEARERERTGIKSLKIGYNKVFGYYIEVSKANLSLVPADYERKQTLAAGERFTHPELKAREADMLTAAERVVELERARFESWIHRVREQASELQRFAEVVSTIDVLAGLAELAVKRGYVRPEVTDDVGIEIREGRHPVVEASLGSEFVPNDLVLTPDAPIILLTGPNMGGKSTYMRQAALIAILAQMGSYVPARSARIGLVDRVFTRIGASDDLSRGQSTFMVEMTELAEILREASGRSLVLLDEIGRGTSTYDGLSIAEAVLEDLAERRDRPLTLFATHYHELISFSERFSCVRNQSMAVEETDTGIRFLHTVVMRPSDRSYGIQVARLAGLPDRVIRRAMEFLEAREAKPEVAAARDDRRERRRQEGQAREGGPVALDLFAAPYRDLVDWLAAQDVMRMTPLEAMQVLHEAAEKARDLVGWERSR

[1] = target: T2, Taq MutS (Thermus aquaticus) (UniProt Q56215); assay: SPR; settings: purified recombinant protein, label: 5'-biotin on Del-strand, variant of C/G fully-matched duplex
T2 sequence (looked up, limits assumed): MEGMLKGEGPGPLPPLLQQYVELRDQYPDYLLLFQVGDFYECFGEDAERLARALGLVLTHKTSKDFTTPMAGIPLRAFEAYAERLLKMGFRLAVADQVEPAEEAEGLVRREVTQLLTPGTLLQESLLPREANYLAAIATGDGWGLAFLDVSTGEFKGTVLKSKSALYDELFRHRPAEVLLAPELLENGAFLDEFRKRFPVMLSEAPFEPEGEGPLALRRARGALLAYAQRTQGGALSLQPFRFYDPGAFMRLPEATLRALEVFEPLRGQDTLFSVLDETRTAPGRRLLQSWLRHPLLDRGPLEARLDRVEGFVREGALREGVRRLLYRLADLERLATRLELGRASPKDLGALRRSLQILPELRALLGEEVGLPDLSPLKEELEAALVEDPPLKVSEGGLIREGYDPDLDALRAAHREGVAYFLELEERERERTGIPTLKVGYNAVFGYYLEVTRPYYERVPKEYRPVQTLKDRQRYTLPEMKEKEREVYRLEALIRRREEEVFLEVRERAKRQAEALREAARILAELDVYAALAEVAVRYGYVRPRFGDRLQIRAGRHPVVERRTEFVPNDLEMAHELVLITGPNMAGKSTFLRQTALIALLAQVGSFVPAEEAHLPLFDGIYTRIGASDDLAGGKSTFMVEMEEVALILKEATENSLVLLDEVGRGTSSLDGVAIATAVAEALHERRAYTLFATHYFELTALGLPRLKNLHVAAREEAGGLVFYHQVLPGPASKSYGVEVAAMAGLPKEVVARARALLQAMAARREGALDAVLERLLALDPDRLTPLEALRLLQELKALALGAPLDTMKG

Measured: binding result

CCGCTGAATTGCACCGAGCTGATCCTCGATGATCCTAAGCGATCCATG / CATGGATCGCTTAGGATCATCGAGGATCGAGCTCGGTGCAATTCAGCGG [Del/G deletion duplex]
binds: Aac MutS; 1 mM ADP, binding increased and dissociation suppressed | Aac MutS; 1 mM ATP, binding increased | Aac MutS; no nucleotide, 0.1-4 uM MutS, slow dissociation | [1]; 1 mM ADP, almost same as without ADP | [1]; 1 mM ATP, almost same as without ATP | [1]; no nucleotide, rapid dissociation
